Results: PubChem BioAssay AID1671190 (National Center for Advancing Translational Sciences (NCATS), 2021)
Values joined by “and” are separate entries in the source; they are usually repeats but may differ in a detail not shown here. Identical values can stand only once. The campaign covered roughly 580,000 compounds. About 6,100 (1.1%) were called active. Inconclusive means that the source gave no clear call. Such entries were picked first, then a sample of the others. Calls follow the shape of the dose curve; as a rule, active = well fitted inhibition curve with a large enough effect; inconclusive = small, poorly fitted or top-dose-only effect, or another doubt; inactive = no such curve, though single readings can be large or run the other way. Where the call is inconclusive, the potency comes from a doubtful curve fit.

Protein sequences, listed by entry. Tags and fused reporters are not part of them. Lines headed by an entry give the natural chain unless they say otherwise; changes in a name come on top.
UniProt P18054: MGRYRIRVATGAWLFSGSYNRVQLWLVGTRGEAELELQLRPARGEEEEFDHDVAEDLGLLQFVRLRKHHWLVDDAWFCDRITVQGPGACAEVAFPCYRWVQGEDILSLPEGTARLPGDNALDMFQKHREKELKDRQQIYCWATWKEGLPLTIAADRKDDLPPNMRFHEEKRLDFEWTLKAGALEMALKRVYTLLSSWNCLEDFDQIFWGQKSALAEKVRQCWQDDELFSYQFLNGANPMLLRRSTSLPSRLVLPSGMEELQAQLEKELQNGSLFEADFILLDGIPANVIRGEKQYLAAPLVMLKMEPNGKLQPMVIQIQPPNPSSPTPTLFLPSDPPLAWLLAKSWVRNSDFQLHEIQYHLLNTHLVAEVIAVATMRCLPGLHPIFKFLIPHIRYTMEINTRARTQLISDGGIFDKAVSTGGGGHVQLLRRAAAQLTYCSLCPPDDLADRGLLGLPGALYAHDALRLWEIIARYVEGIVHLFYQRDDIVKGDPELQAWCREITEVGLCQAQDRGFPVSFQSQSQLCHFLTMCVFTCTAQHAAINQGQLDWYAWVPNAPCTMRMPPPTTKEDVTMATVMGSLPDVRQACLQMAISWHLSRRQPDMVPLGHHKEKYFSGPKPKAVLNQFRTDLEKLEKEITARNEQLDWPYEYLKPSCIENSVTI

target: Polyunsaturated fatty acid lipoxygenase ALOX12 (Homo sapiens) (UniProt P18054); assay: Primary qHTS assay for inhibitors of human arachidonate 12S-lipoxygenase (ALOX12): Round 2; conditions: purified 12hLO, xylenol orange hydroperoxide absorbance; activity change, negative = inhibition: at 108 µM (top of the series) unless noted
Summary of the method: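 Hydroperoxide product was detected by ferrous iron/xylenol orange as the 573 to 405 nm absorbance ratio. Arachidonic acid at 40 uM (final) was turned over for 30 min at room temperature by 150 nM human 12hLO, pH 7.0 Hepes buffer, after 15 min compound preincubation.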
% is scaled to controls: 0 for no effect and ±100 for the full control effect; potency is read from the fitted curve at half-maximal effect.

Row | Structure (SMILES) | Potency | activity change, negative = inhibition
1 | O=C(CCCn1c(=O)c2cccn2c2cccnc21)Nc1ccccc1C(F)(F)F | inconclusive: 112 µM [inhibitor, partial curve, poor fit] | 
2 | CCn1ncc([N+](=O)[O-])c1C(=O)Nc1cc(C)on1 |  | inactive: -27.4%
3 | CS(=O)(=O)N(CC(=O)Nc1ccc(S(=O)(=O)N2CCOCC2)cc1)c1cccc(F)c1 | inactive | 
4 | O=C(c1ccc(Br)o1)N1CCN(Cc2ccc3c(c2)OCO3)CC1 |  | inactive: 0%
5 | COC(=O)c1ccc(N2C(c3ccsc3)=Cc3cc4c(cc3C2CC(=O)c2ccco2)OCO4)cc1 (stereo not given) | inconclusive: 141 µM [inhibitor, partial curve, poor fit] | 
6 | CC1CN(C(c2ccco2)c2sc3ncnn3c2O)CC(C)O1 (stereo not given) | inconclusive: 39.8 µM [inhibitor, partial curve, poor fit] | 
7 | CCN(CC)CCn1c(=O)c(Cc2ccc(OC)cc2)nc2ccccc21 | inconclusive: 35.5 µM [inhibitor, partial curve, poor fit] and inconclusive: 306 nM [inhibitor, full curve, poor fit] | 
8 | COc1ccc(C(=O)N(C)[C@H]2C[C@H]3c4[nH]c5c(-c6ccccc6)cccc5c4CCN3C(=O)[C@H]2[C@H](C)O)cc1 | inconclusive: 89.1 µM [inhibitor, partial curve, poor fit] | 
9 | Cc1[nH]c2c(C(=O)NC3CCS(=O)(=O)C3)cccc2c1C (stereo not given) |  | inactive: -2.32%
10 | CC(C(=O)N1CCNC1=O)N(C)Cc1cccc(Cl)c1 (stereo not given) |  | inactive: -0.845%
11 | Fc1ccccc1N1CCN(c2nnc(C(F)(F)F)c3nnn(Cc4ccccc4)c23)CC1 |  | inactive: -5.01%
12 | NC(=S)NN=C1c2cc(S(=O)(=O)N3CCOCC3)ccc2-c2ccc(S(=O)(=O)N3CCOCC3)cc21 | inconclusive: 39.8 µM [inhibitor, partial curve, poor fit] | 
13 | O=C(Nc1c(NC2CCCCC2)c2ccccc2oc1=O)c1ccc2c(c1)OCO2 | inconclusive: 35.5 µM [inhibitor, partial curve, poor fit] | 
14 | Cc1ccc(N2C(=O)/C(=C/c3cccnc3)SC2=S)cc1 |  | inactive: 2.64%
15 | Cc1cc(C)n(CCO)c(=O)n1 | inconclusive: 31.6 µM [inhibitor, partial curve, poor fit] | 
16 | COc1cccc(OCCNc2cc(N3CCOCC3)ccc2[N+](=O)[O-])c1 |  | inactive: -10.3%
17 | CCC(=O)Nc1ccc(-c2csc(Nc3cccc(OC)c3)n2)cc1 | inconclusive: 6.31 µM [inhibitor, full curve, poor fit] | 
18 | Nc1nc(-c2ccccn2)nc(N)c1Cc1ccccc1F |  | inactive: 6.84%
19 | COc1ccc(C(=O)Nc2cnc3c(cnn3C(C)C)c2)cc1S(=O)(=O)N1CCCC1 | inconclusive: 44.7 µM [inhibitor, partial curve, poor fit] | 
20 | O=C(NCCCN1CCC(Cc2ccccc2)CC1)c1ccc(CS(=O)c2ccccc2Cl)o1 (stereo not given) | inconclusive: 31.6 µM [inhibitor, full curve, poor fit] | 

Row | Structure (SMILES) | Potency | activity change, negative = inhibition
21 | Cc1cccnc1NC(=O)c1ccc2c(c1)OCCO2 |  | inactive: 8.37%
22 | CCOC(=O)CNC(=O)c1cc(-c2ccc(C)s2)nc2ccccc12 | inconclusive: 7.94 µM [inhibitor, full curve] | 
23 | Cc1ccc(S(=O)(=O)NC(=O)NC2=NC(C)(C)N(c3ccc(Cl)c(Cl)c3)C(N)=N2)cc1 | inconclusive: 0.501 µM [inhibitor, full curve, poor fit] | 
24 | COc1ccc(CN(C)CC2CCCN(CCc3ccccc3C)C2)cc1O (stereo not given) | inconclusive: 44.7 µM [inhibitor, partial curve, poor fit] | 
25 | CC1=C(C(=O)Nc2ccc(C)cc2)C(c2ccc(C)o2)C2=C(CC(C)(C)CC2=O)N1 (stereo not given) | inconclusive: 28.2 µM [inhibitor, single point] | 
26 | Cc1c2cnn(CC(=O)NCc3cccs3)c(=O)c2c(C)n1Cc1ccccc1 | inconclusive: 141 µM [inhibitor, partial curve, poor fit] | 
27 | CC(=C/c1ccccc1)/C=N/Nc1ccc([N+](=O)[O-])cc1 | inconclusive: 8.91 µM [inhibitor, partial curve, poor fit] | 
28 | CS(=O)(=O)c1ccc(OC[C@H]2C[C@@H](NC(=O)C3CCOCC3)[C@H](O)[C@@H]2O)cc1 |  | inactive: 77.7% [at 176 µM]
29 | O=C(Oc1c(Sc2ccc(Cl)cc2)c(=O)oc2ccccc12)c1ccccc1 | inconclusive: 44.7 µM [inhibitor, partial curve, poor fit] | 
30 | Cc1nn2c(N3CCN(C)CC3)cc(C(C)(C)C)nc2c1-c1ccccc1 | inconclusive: 100 µM [inhibitor, single point] | 
31 | Cc1ccccc1Nc1c([N+](=O)[O-])ccc2nonc12 | inconclusive: 6.31 µM [inhibitor, partial curve, poor fit] | 
32 | COc1ccc(C)cc1NC(=O)C1CCCN(S(=O)(=O)c2ccc3c(c2)CCCN3C(C)=O)C1 (stereo not given) | inconclusive: 31.6 µM [inhibitor, partial curve, poor fit] | 
33 | Cc1ccsc1-c1[nH]nc2ncc(-c3cccnc3)nc12 | inconclusive: 89.1 µM [inhibitor, full curve] | 
34 | O=C(CNc1cccc(Cl)c1)c1ccc(Cl)cc1 | inconclusive: 15.8 µM [inhibitor, full curve] | 
35 | Cc1ccc(C(=O)C[n+]2ccc(Cc3ccccc3)cc2)cc1 |  | inactive: 30%
36 | CCCCNC(=S)NN=C1CCCC1 | inconclusive: 79.4 µM [inhibitor, partial curve, poor fit] | 
37 | O=C(NC[C@H]1O[C@@H](CO)[C@@H](O)[C@H]1N1CCCCC1)c1ccccc1 | inconclusive: 28.2 µM [inhibitor, full curve, poor fit] | 
38 | O=C(c1ccco1)N1N=C(c2c(-c3ccccc3)c3cc(Cl)ccc3[nH]c2=O)CC1c1ccco1 (stereo not given) | inconclusive: 20 µM [inhibitor, partial curve, poor fit] | 
39 | O=C1c2ccccc2NC(c2ccc(O)cc2)N1Cc1ccco1 (stereo not given) | inconclusive: 39.8 µM [inhibitor, partial curve, poor fit] | 
40 | O=C(c1cc2nc(-c3ccco3)cc(C(F)(F)F)n2n1)N1CCc2ccccc2C1 | inconclusive: 44.7 µM [inhibitor, partial curve, poor fit] | 
